According to US20250127898A1, “PHOTODYNAMIC THERAPY AND DIAGNOSIS” (RMW CHO Group Limited, priority 2021, published 2025):
Where a name gives a salt, the structure may show the parent alone. Where a SMILES comes first, the peptide text is derived from it. The star is where a group is joined. X1 = CCC1=C(C)c2cc3[nH]c(cc4nc(c(C)c5cc(C)c(cc1n2)[nH]5)[C@@H](CCC(=O)*)[C@@H]4C)c(C)c3CC

System: Human ovarian cancer cell line SKOV3
Assay: Therapeutic index calculated using phototoxicity IC90 vs dark toxicity IC10
Assay type: cell-based
Details: phototoxicity IC90 vs dark toxicity IC10, SKOV3 cells (IC90 by LED for * compounds)

Compound	Therapeutic Index
C=Cc1c(C)c2cc3nc(c(C)c4[nH]c(cc5nc(cc1[nH]2)C(C)=C5CC)c(C)c4C(=O)O)[C@@H](CCC(=O)O)[C@@H]3C [Chlorin e4 disodium, chlorin e4 disodium, reference compound]	1.89
CCC1=C(C)c2cc3[nH]c(cc4nc(c(C)c5cc(C)c(cc1n2)[nH]5)[C@@H](CCC(=O)[O-])[C@@H]4C)c(C)c3CC.[Na+] [Compound 2, Reduced Phyllochlorin Sodium Salt]	673.80
CCC1=C(C)c2cc3[nH]c(cc4nc(c(C)c5cc(C)c(cc1n2)[nH]5)[C@@H](CCC(=O)N[C@H]1C(O)O[C@H](CO)[C@@H](O)[C@@H]1O)[C@@H]4C)c(C)c3CC (stereo partly drawn) [Compound 3, Reduced Phyllochlorin 2-deoxyglucosamine-propylamide]	310.00
CCC1=C(C)c2cc3[nH]c(cc4nc(c(C)c5cc(C)c(cc1n2)[nH]5)[C@@H](CCC(=O)N(C)CCCS[C@@H]1O[C@H](CO)[C@@H](O)[C@H](O)[C@H]1O)[C@@H]4C)c(C)c3CC [Compound 4, Reduced Phyllochlorin β-D-1-thioglucose-N-methylpropylamide]	40.88
CCC1=C(C)c2cc3[nH]c(cc4nc(c(C)c5cc(C)c(cc1n2)[nH]5)[C@@H](CCC(=O)N(C)CCOCCO[C@@H]1O[C@H](CO)[C@@H](O)[C@H](O)[C@H]1O)[C@@H]4C)c(C)c3CC [Compound 5, Reduced Phyllochlorin β-D-1-glucose-N-methyl-2-ethoxy-N-ethanamine]	180.78
CCC1=C(C)c2cc3[nH]c(cc4nc(c(C)c5cc(C)c(cc1n2)[nH]5)[C@@H](CCC(=O)N(C)CCCO[C@@H]1O[C@H](CO)[C@@H](O)[C@H](O)[C@H]1O)[C@@H]4C)c(C)c3CC [Compound 9, Reduced Phyllochlorin β-D-glucosyl-N-methylpropylamide]	130.41
CCC1=C(C)c2cc3[nH]c(cc4nc(c(C)c5cc(C)c(cc1n2)[nH]5)[C@@H](CCC(=O)N(C)CCCOCCC[P+](c1ccccc1)(c1ccccc1)c1ccccc1)[C@@H]4C)c(C)c3CC [Compound 11]	1,449.00
CCC1=C(C)c2cc3[nH]c(cc4nc(c(C)c5cc(C)c(cc1n2)[nH]5)[C@@H](CCC(=O)N(C)CCOCCOCCO)[C@@H]4C)c(C)c3CC [Compound 12, Reduced Phyllochlorin N-(2-(2-(2-hydroxyethoxy)ethoxy)ethyl)-N-methyl-3-amide]	76.60
CCC1=C(C)c2cc3[nH]c(cc4nc(c(C)c5cc(C)c(cc1n2)[nH]5)[C@@H](CCC(=O)N(C)CCOCCOCC[n+]1ccccc1)[C@@H]4C)c(C)c3CC [Compound 13, Reduced Phyllochlorin N-(2-(2-(2-pyridiniumethoxy)ethoxy)ethyl)-N-methyl-3-amide chloride]	210.00
CCC1=C(C)c2cc3[nH]c(cc4nc(c(C)c5cc(C)c(cc1n2)[nH]5)[C@@H](CCC(=O)N(C)CCOCCOCCOCCOCCOCCOC)[C@@H]4C)c(C)c3CC [Compound 14, Reduced Phyllochlorin N-methyl-N-3,6,9,12,15,18-hexaoxanonadecyl propylamide]	24.47
CCC1=C(C)c2cc3[nH]c(cc4nc(c(C)c5cc(C)c(cc1n2)[nH]5)[C@@H](CCC(=O)N[C@@H]1C(O)O[C@H](CO)[C@@H](O)[C@@H]1O)[C@@H]4C)c(C)c3CC (stereo partly drawn) [Compound 15, Reduced Phyllochlorin 2-deoxy-D-mannosamine-propylamide]	77.14
CCC1=C(C)c2cc3[nH]c(cc4nc(c(C)c5cc(C)c(cc1n2)[nH]5)[C@@H](CCC(=O)N(C)CCOCCOCC[P+](c1ccccc1)(c1ccccc1)c1ccccc1)[C@@H]4C)c(C)c3CC [Compound 16, Reduced Phyllochlorin N-(2-(2-(2-triphenylphosphoniumethoxy)ethoxy)ethyl)-N-methyl-3-amide chloride]	291.36
CCC1=C(C)c2cc3[nH]c(cc4nc(c(C)c5cc(C)c(cc1n2)[nH]5)[C@@H](CCC(=O)N(C)CCC[S+]([O-])[C@@H]1O[C@H](CO)[C@@H](O)[C@H](O)[C@H]1O)[C@@H]4C)c(C)c3CC (stereo partly drawn) [Compound 17, Reduced Phyllochlorin β-D-1-thioglucose-N-methylpropylamide sulfoxide]	27.31
CCC1=C(C)c2cc3[nH]c(cc4nc(c(C)c5cc(C)c(cc1n2)[nH]5)[C@@H](CCCN)[C@@H]4C)c(C)c3CC [Compound 18, Reduced Phyllochlorin 3-aminopropyl]	394.60
CCC1=C(C)c2cc3[nH]c(cc4nc(c(C)c5cc(C)c(cc1n2)[nH]5)[C@@H](CCC(=O)N(C)CCO)[C@@H]4C)c(C)c3CC [Compound 19, Reduced Phyllochlorin N-2-hydroxyethyl-N-methyl propylamide]	261.31
CCC1=C(C)c2cc3[nH]c(cc4nc(c(C)c5cc(C)c(cc1n2)[nH]5)[C@@H](CCCO)[C@@H]4C)c(C)c3CC [Compound 20, Reduced Phyllochlorin 3-hydroxypropyl]	92.46
CCC1=C(C)c2cc3[nH]c(cc4nc(c(C)c5cc(C)c(cc1n2)[nH]5)[C@@H](CCC(=O)N(C)CCCCCCCCCC[P+](c1ccccc1)(c1ccccc1)c1ccccc1)[C@@H]4C)c(C)c3CC [Compound 21, Reduced Phyllochlorin ((methylamino)-10-decyl)triphenylphosphonium Chloride Propylamide]	66.59

Compound	Therapeutic Index
CCC1=C(C)c2cc3[nH]c(cc4nc(c(C)c5cc(C)c(cc1n2)[nH]5)[C@@H](CCC(=O)N(C)CCCO)[C@@H]4C)c(C)c3CC [Compound 22, Reduced Phyllochlorin N-3-hydroxypropyl-N-methyl Propylamide]	103.52
CCC1=C(C)c2cc3[nH]c(cc4nc(c(C)c5cc(C)c(cc1n2)[nH]5)[C@@H](CCC(=O)N(C)CCCCCO)[C@@H]4C)c(C)c3CC [Compound 23, Reduced Phyllochlorin N-5-hydroxypentyl-N-methyl Propylamide]	70.94
CCC1=C(C)c2cc3[nH]c(cc4nc(c(C)c5cc(C)c(cc1n2)[nH]5)[C@@H](CCC(=O)N[C@H]1C(O)O[C@H](CO)[C@H](O)[C@@H]1O)[C@@H]4C)c(C)c3CC (stereo partly drawn) [Compound 24, Reduced Phyllochlorin 2-deoxy-D-galactosamine-propylamide]	143.08
CCC1=C(C)c2cc3[nH]c(cc4nc(c(C)c5cc(C)c(cc1n2)[nH]5)[C@@H](CCC(=O)N[C@@H](CCCCN)C(=O)N[C@@H](CCCCN)C(=O)N[C@@H](CCCCN)C(=O)N[C@@H](CCCCN)C(=O)N[C@@H](CCCCN)C(=O)N(C)C)[C@@H]4C)c(C)c3CC [Compound 26, Reduced Phyllochlorin lysyl-lysyl-lysyl-lysyl-lysyl Dimethylamide Propylamide Pentahydrochloride] (X1-KKKKK-NMe2)	29.70
CCC1=C(C)c2cc3[nH]c(cc4nc(c(C)c5cc(C)c(cc1n2)[nH]5)[C@@H](CCC[P+](c1ccccc1)(c1ccccc1)c1ccccc1)[C@@H]4C)c(C)c3CC [Compound 27, Reduced Phyllochlorin 3-triphenylphosphonium Propyl Iodide]	241.09
CCC1=C(C)c2cc3[nH]c(cc4nc(c(C)c5cc(C)c(cc1n2)[nH]5)[C@@H](CCC(=O)N[C@@H](CCCCN)C(=O)N(C)C)[C@@H]4C)c(C)c3CC [Compound 31, Reduced Phyllochlorin N-Lysyl Dimethylamide Propylamide Hydrochloride]	804.55
CCC1=C(C)c2cc3[nH]c(cc4nc(c(C)c5[nH]c(cc1n2)c(C)c5C(=O)O)[C@@H](CCC(=O)O)[C@@H]4C)c(C)c3CC [Compound 36, Reduced Chlorin e4]	2.80
CCC1=C(C)c2cc3[nH]c(cc4nc(c5c6[nH]c(cc1n2)c(C)c6C(=O)OC5)[C@@H](CCC(=O)O)[C@@H]4C)c(C)c3CC [Compound 39, Reduced Chlorin K]	46.80
CCC1=C(C)c2cc3[nH]c(cc4nc(c5c6[nH]c(cc1n2)c(C)c6C(=O)OC5)[C@@H](CCC(=O)N(C)CCCS[C@@H]1O[C@H](CO)[C@@H](O)[C@H](O)[C@H]1O)[C@@H]4C)c(C)c3CC [Compound 40, Reduced Chlorin K β-D-1-thioglucose-N-methylpropylamide]	14.09
C=Cc1c(C)c2cc3nc(c(CC(=O)N[C@@H](CC(=O)O)C(=O)O)c4[nH]c(cc5nc(cc1[nH]2)C(C)=C5CC)c(C)c4C(=O)O)[C@@H](CCC(=O)O)[C@@H]3C [Talaporfin sodium, reference compound]	0.49
Phyllochlorin free acid [reference compound]	31.40
Phyllochlorin sodium salt [reference compound]	62.74
Reduced Phyllochlorin Methyl Ester [Compound 6]	31.40
Reduced Phyllochlorin N-(2-(2-(2-picolinylethoxy)ethoxy)ethyl)-N-methyl-3-amide chloride [Compound 28]	46.32
Reduced Phyllochlorin N-(2-(2-hydroxyethoxy)ethyl)-N-methylpropylamide [Compound 7]	725.00
Reduced Phyllochlorin [Compound 1]	59.38
